Reference: PubChem BioAssay AID504793 (Drosophila RNAi Screening Center, 2011)
The deposit covers about 23,000 reagents; below is an unselected part of those that have a named target and a result. Of all reagents, 62 (0.27%) are marked active. 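Calls come from follow-up tests whose scores are not deposited, so confirmed genes may have low counts here; counts are not normalised per plate.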 The raw values are shown without normalisation.

Screen: 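Whole-genome screen for parts of the DNA damage checkpoint at G2/M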 (primary screen)
Cells: Drosophila S2R+ cells
Reagents: long dsRNA against Drosophila genes, about 0.25 µg dsRNA per well
Duration: 4 days of dsRNA, then 4 hours of drug before read-out
Challenge: doxorubicin 0.5 µM for 4 hours to cause double-strand breaks, in cells also given a low, harmless dose of dsRNA against nbs to sensitise the assay
Measurement: 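Per-well count of mitotic cells stained for phospho-histone H3 after doxorubicin exposure, used as mitotic index; counts are raw and not normalised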
Reading the numbers: mitotic cells: higher = more cells in mitosis, weaker G2 arrest
Hit rule: 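Genes are called active only when high mitotic counts were reproduced with independent dsRNAs and mitosis was checked for delay without damage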
Calls: active = confirmed in follow-up tests; inactive = not confirmed

gene knocked down	dsRNA	mitotic cells, replicate 1	mitotic cells, replicate 2	Call
CG8952	DRSC20133	3		inactive
CG4238	DRSC00644	3		inactive
Jhbp12	DRSC14621	8		inactive
CG11920	DRSC14439	8		inactive
CG15194 (retired record)	DRSC19642	9		inactive
CG15194 (retired record)	DRSC19777	9		inactive
miple1	DRSC08722			inactive
RpL24-like	DRSC16111	5		inactive
CG10996	DRSC19363	9		inactive
CG5866	DRSC15900			inactive
Cul1	DRSC07645	26		active
Cul1	DRSC26395	9		inactive
Targ1	DRSC11616	1		inactive
ppk28	DRSC19919	7		inactive
CG10814	DRSC06004	5		inactive
PolH	DRSC11800	3		inactive
mTor	DRSC02811	11		inactive
CG7992	DRSC20070	5		inactive
Sec63	DRSC11002	4	11	inactive
CG7328	DRSC10812	7		inactive
CG30187	DRSC22461	10		inactive
Rbf2	DRSC16816	3		inactive
Aldh7A1	DRSC11083	7		inactive
CG31262	DRSC13216	22		inactive
Tab2	DRSC07481	5		inactive

A few values from the list.
Entry of ppk28 [DRSC19919] in “Call”: inactive
CG8952 [DRSC20133], mitotic cells, replicate 1 → 3
Entry for Rbf2 [DRSC16816] under “Call”: inactive
Value of mTor [DRSC02811] in “mitotic cells, replicate 1”: 11
Entry for Targ1 [DRSC11616] in “mitotic cells, replicate 1”: 1
For “mitotic cells, replicate 1”, Jhbp12 [DRSC14621] shows 8

Further entries:
gene knocked down	dsRNA	mitotic cells, replicate 1	mitotic cells, replicate 2	Call
spir	DRSC03619	6		inactive
spir	DRSC24744	7		inactive
GstE11	DRSC06926	3		inactive
Stoml2	DRSC04326	4		inactive
CG1416	DRSC03706	3		inactive
CG10803	DRSC17763	7		inactive
CG10803	DRSC26282	5		inactive
CG32104	DRSC10127	5		inactive
CG32104	DRSC10128	6		inactive
CG32762	DRSC18298	13		inactive
CG32762	DRSC24339	4		inactive
CG1161	DRSC24956	10		inactive
Sdc	DRSC04654	10		inactive
Sdc	DRSC25762	4		inactive
fs(2)ltoPP43	DRSC02067	7		inactive
fs(2)ltoPP43	DRSC24493	6		inactive
CG6244	DRSC10609	6		inactive
CG7728	DRSC10907	3		inactive
CG7728	DRSC28948	7		inactive
CG1924	DRSC19823	8		inactive
CG1924	DRSC24870	3		inactive
